The source of these data is article PMC4826223.

Amino acid sequences for entries named in this document (tags omitted). Residues count along the entry.
UniProt Q8VIM0, 20-193, stated change not applied: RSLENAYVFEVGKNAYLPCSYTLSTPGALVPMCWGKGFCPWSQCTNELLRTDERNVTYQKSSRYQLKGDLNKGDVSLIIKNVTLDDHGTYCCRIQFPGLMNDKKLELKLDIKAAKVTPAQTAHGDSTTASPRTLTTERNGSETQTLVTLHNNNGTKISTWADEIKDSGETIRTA

Construct, isoform or probe ends are uncertain for at least one entry. For some assays here: Negatives hold for the conditions tested. For some assays here: Where cells or extracts were used, other partners may take part.

Series [1] has as its target mouse TIM3-Fc chimera (rmTIM-3-Fc) (mouse) (UniProt Q8VIM0). Description: double-filter nitrocellulose filter binding. The note with it: apparent Kd; 2'-fluoro-U and 2'-fluoro-C; Filter-binding buffer not detailed (cited methods); selection buffer 20 mM HEPES, 150 mM NaCl, 2 mM CaCl2, 0.01% BSA, 37 C, pH not stated; commercial protein; protein details: human IgG1 Fc fusion; label: 32P (spiked alpha-32P-ATP, cell binding).

Series [2] has as its target mouse TIM3 extracellular domain on HEK-293-TIM3ext cells (mouse) (UniProt Q8VIM0). As to the kind of experiment: 32P cell binding. The note with it: no binding to parental HEK-293; 2'-fluoro-U and 2'-fluoro-C; protein on the cell surface; label: 32P (spiked alpha-32P-ATP, cell binding).
A further series addresses human TIM3-Fc (human) (UniProt Q8TDQ0). As to the kind of experiment: binding assay, method not stated (data not shown). The note with it: 2'-fluoro-U and 2'-fluoro-C; recombinant protein; label: 32P (spiked alpha-32P-ATP, cell binding).

Regarding CUGGUAGUUCUCUGUGCGACUCCUA [TIM3-Apt2], the Kd in series [1] came out at 40 nM. The binding result in series [2] is recorded as “binds”.

For GCCACUAUGGUGUUGGAGCUAGCGG [TIM3-Apt1], the Kd in series [1] turned out to be 22 nM. The figures for the binding result (with human TIM3-Fc (human); in series [2]) were “no binding” and “binds”, respectively.
